{
  "source": "paper PMC7994712",
  "about": "(Nature Communications, 2021)",
  "note": "Some peptides are written in HELM: one residue between dots, names in brackets for other building blocks, links after the first $.",
  "data": [
    {"test": "general procedure: Fmoc solid-phase peptide synthesis; 2-Cl-Trt; DIPCDI and HOBt", "conditions": "whole synthesis, scale 0.25 g of 2-Cl-Trt resin ([…]), TFA salt for NMR; acetate salts for in vitro and in vivo studies", "units": {"crude mass": "g"}, "values": [
      {"substance": "PEPTIDE1{[Oct].P.C.K.N.[Msa].F.[dW].K.T.F.T.S.C}$PEPTIDE1,PEPTIDE1,3:R3-14:R3$$$V2.0", "crude mass": 0.53},
      {"substance": "PEPTIDE1{P.C.K.N.F.[Msa].[dW].K.T.F.T.S.C.K}$PEPTIDE1,PEPTIDE1,2:R3-13:R3$$$V2.0", "crude mass": 0.56},
      {"substance": "PEPTIDE1{[Oct].P.C.K.N.[Msa].F.[dW].K.T.F.T.S.C.K}$PEPTIDE1,PEPTIDE1,3:R3-14:R3$$$V2.0", "crude mass": 0.55},
      {"substance": "PEPTIDE1{[Oct].P.C.K.N.F.[Msa].[dW].K.T.F.T.S.C.K}$PEPTIDE1,PEPTIDE1,3:R3-14:R3$$$V2.0", "crude mass": 0.50},
      {"substance": "PEPTIDE1{P.C.K.N.[Msa].F.[dW].K.T.F.T.S.C.K}$PEPTIDE1,PEPTIDE1,2:R3-13:R3$$$V2.0", "crude mass": 0.53}
    ]}
  ]
}
